For 40 compounds, AC50 results are on record in PubChem BioAssay AID493014 (National Center for Advancing Translational Sciences (NCATS), 2011).

The other results are listed elsewhere or left out. The main result of the screen is listed elsewhere. These columns were measured beside it and carry no call. The list favours compounds with an active or inconclusive main result. Potencies come from curve fits of mixed quality, noted in brackets.

A short description of this experiment: qHTS Assay to Find Inhibitors of Chronic Active B-Cell Receptor Signaling. Conditions: ABC-DLBCL IkBa-CBG/CBR reporter, luminescence ratio (green luciferase fused to IkBa over red control in TMD8 lymphoma cells), 4 h. Summed up: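 TMD8 ABC-DLBCL cells carrying doxycycline-inducible green luciferase fused to IkappaBalpha plus unfused red luciferase were exposed to compounds (up to 46 uM) for 4 hrs at 37C. Activity came from the overlap-corrected green/red luminescence ratio.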
(In general: qHTS replaces the single test concentration by a dilution series.)

The mark [1] stands for this setting: measured here: CBR red luminescence, cell number.
[2] abbreviates: measured here: IkBa-CBG green luminescence.

In the case of `CCOC(=O)c1c(C=O)c2sc(C)cc2n1C`, the AC50 (in general, the concentration giving half of the maximal activity seen) by setting is: under setting [1], 1.78 µM [rising, full curve, poor fit]; under setting [2], 14.1 µM [falling, partial curve].

For the compound `CCOc1ccc(N=Nc2c(C)noc2C)cc1`, under setting [1], the concentration at half-maximal activity (AC50) was 35.5 µM [rising, single point].

Consider `CCN(CC)CCNC(=O)c1ccc(CS(=O)(=O)c2ccccc2C)o1`, for which the AC50 under setting [1] is 0.178 µM [rising, full curve, poor fit].

For `COc1ccc(-c2ncc3ccccn23)cc1OC`, under setting [1], the AC50 is 5.01 µM [rising, partial curve].

For the compound `COc1ccccc1NC(=O)Nc1nc(CC(=O)Nc2ccc(N(C)C)cc2)cs1`, the AC50 under setting [1] is 4.11 µM [rising, single point].

In the case of `CC1=C(C(=O)Nc2ccccc2)C(c2ccco2)C(C#N)=C(SCc2ccccc2)N1` (centres undefined), under setting [1], the AC50 was 16.4 µM [falling, single point].

Turning to `O=C(O)c1ccc2cccc(Cl)c2c1O`, the AC50 under setting [1] is 6.51 µM [falling, partial curve, poor fit].

With `O=C(Nc1ncccc1Cl)C1COc2ccccc2O1` (centres undefined), the AC50 under setting [1] is 0.731 µM [rising, full curve].

For `O=C(Cc1cccs1)NC1CC(=O)N(c2ccccc2)C1` (centres undefined), under setting [1], the AC50 was 1.58 µM [falling, partial curve, poor fit].

In the case of `Cc1ccc(C)c(NC(=O)c2cc(-c3ccccc3O)n[nH]2)c1`, the AC50 under setting [1] is 3.16 µM [falling, full curve, poor fit].

As to `CC1(C)O[C@@H]2CC3C4C[C@H](F)C5=CC(=O)C=CC5(C)C4C(O)CC3(C)[C@]2(C(=O)CO)O1` (some centres undefined), under setting [1], the AC50 is 6.51 µM [rising, single point].

Regarding `Cc1ccc2[nH]c(O)c(N=NC(=O)c3ccc(NS(=O)(=O)c4cccs4)cc3)c2c1`, the AC50 was 35.5 µM [falling, single point] under setting [1] and 6.31 µM [falling, single point] under setting [2].

With `CCC(C)NC(=O)c1ccc2nc(-c3ccc(OC)c(OC)c3)c(-c3ccc(OC)c(OC)c3)nc2c1` (centres undefined), under setting [1], the AC50 is 35.5 µM [rising, single point].

Turning to `O=C(Nc1nccs1)c1cc([N+](=O)[O-])ccc1Cl`, the AC50 under setting [1] is 4.47 µM [rising, single point].

As to `O=c1oc2ccccc2n1CCn1c2ccccc2c2nc3ccccc3nc21`, the AC50 under setting [1] is 2.59 µM [rising, single point].

For `COC(=O)c1ccc(COC(=O)CCc2nc(-c3ccccc3)c(-c3ccccc3)o2)cc1`, the AC50 under setting [1] is 0.184 µM [rising, full curve, poor fit].

Take `COc1ccc(-n2c(/C=C/c3cc(OC)c(OC)cc3OC)nc3cc4ccccc4cc3c2=O)cc1Cl`: under setting [1], the half-maximal activity concentration (AC50) was 2.51 µM [falling, partial curve, poor fit].

For `CN(C(=O)c1ccc(NC(=O)Cc2cccc(NC(=O)C3CCN(C(=O)c4ccccc4)CC3)c2)cc1)C1CCCC1`, the AC50 under setting [1] was 0.366 µM [rising, partial curve, poor fit].

As for `O=S1(=O)CCC(NC(=S)N2CCCCCC2)C1` (centres undefined), the AC50 under setting [1] is 23.1 µM [falling, single point].

In the case of `NC(=S)N/N=C/c1ccccc1OCc1cccc(Cl)c1`, under setting [2], the AC50 is 31.6 µM [falling, single point].

With `Cc1cc(N=CC2=C(O)CC(C)(C)CC2=O)no1`, the AC50 under setting [1] is 6.31 µM [rising, full curve].

As to `CN1CCOc2ccc(S(=O)(=O)N3CCN(S(=O)(=O)c4c(F)cccc4F)CC3)cc21`, under setting [1], the AC50 was 6.51 µM [rising, partial curve].

Take `CCC/C=N/NC(=O)c1[nH]c2c([N+](=O)[O-])cccc2c1C`: the AC50 under setting [2] is 25.9 µM [falling, partial curve, poor fit].

Turning to `Cc1ccc2c(c1)Sc1c(ccc3ccccc13)N2`, under setting [1], the AC50 was 0.112 µM [falling, full curve, poor fit].

Consider `CN1CC(c2ccc(C#N)cc2)C2(COc3ccccc3C2=O)C12C(=O)Nc1ccccc12` (centres undefined), for which the AC50 under setting [1] was 7.94 µM [rising, partial curve, poor fit].

As to `O=C(O)CCC(=O)OCCc1cc2ccccc2c(=O)o1`, under setting [1], the AC50 was 29.1 µM [falling, single point].

Take `COc1ccc(-c2oc(NC(=O)CSc3ncn[nH]3)c(C#N)c2-c2ccc(OC)cc2)cc1`: under setting [1], the concentration at half-maximal activity (AC50) was 35.5 µM [falling, single point].

Consider `COC(=O)C1=NN(c2ccccc2OC)C2C(=O)N(c3ccccc3OC)C(=O)C12` (centres undefined), for which the AC50 under setting [1] was 29.1 µM [rising, single point].

Turning to `CC1(C)CC(=O)C(C=Nc2cccc(/N=C/C3=C(O)CC(C)(C)CC3=O)n2)=C(O)C1`, the AC50 under setting [1] is 3.66 µM [falling, single point].

As to `CNC(=O)CSc1nc2sccc2c(=O)n1-c1ccccc1`, under setting [1], the AC50 is 2 µM [rising, full curve].

For the compound `O=C(Nc1cc(-c2ccccc2)nn1-c1ccccc1)c1ccccc1F`, the AC50 under setting [1] was 25.9 µM [falling, single point].

Regarding `COc1ccc(OCC#CCN2CC(C)OC(C)C2)cc1` (centres undefined), the AC50 under setting [1] was 11.2 µM [rising, single point].

Consider `O=C1NC(c2ccccc2)=C(c2ccc3ccccc3n2)C(c2ccc(F)cc2)N1` (centres undefined), for which the AC50 under setting [1] was 23.1 µM [falling, single point].

As for `COc1ccc(/C=N/NC(=O)c2ccoc2C)cc1OC`, under setting [1], the AC50 was 9.2 µM [falling, partial curve].

Regarding `S=C(Nc1ccc(Cl)cc1)c1nc2ccccc2[nH]1`, the AC50 reads like this: under setting [1], 16.4 µM [falling, single point]; under setting [2], 9.2 µM [rising, partial curve, poor fit].

On to `Cc1ccc(C(=O)Nc2cccc(NC(=O)CN3CCCCC3)c2)cc1`, for which the AC50 under setting [1] was 7.94 µM [falling, single point].

For the compound `Cc1nc2cc(NCc3cccs3)ccc2n1C`, under setting [1], the AC50 is 35.5 µM [falling, single point].

As for `Cc1c(C(C)(C(=O)O)c2c(C)n(C)c3ccccc23)c2ccccc2n1C`, the AC50 under setting [1] is 6.31 µM [rising, partial curve, poor fit].

Turning to `C=C(C)COc1ccc(-c2nc(N)ncc2Oc2ccccc2OCC)c(O)c1`, the AC50 runs as follows: under setting [1], 29.1 µM [rising, single point]; under setting [2], 29.1 µM [falling, single point].

For the compound `CCCCCC(=O)NC(=S)Nc1ccc(N2CCCCC2)c(Cl)c1`, the AC50 under setting [1] was 2.24 µM [rising, full curve, poor fit].
